Measured values taken from patent US20030104393A1, “Blood assessment of injury” (priority 2000, published 2003).
Further values from the same series stand in other lists.

System: brain
Test: Genes induced in the brain following kainic acid-induced seizures (microarray)
Assay type: in vivo, rat
Parameters: key: NC = No Change
Procedure: Status epilepticus is produced by intraperitoneally injecting a glutamate analogue/excitotoxin, kainic acid (10 mg/kg i.p.). Animals with kainate-induced seizures are observed following drug administration to ensure that they continue to have complex seizures over a 30 minute period.
All animals are allowed to survive for 24 hours following each treatment. At that time they are deeply anesthetized with ketamine (100 mg/kg) and xylazine (20 mg/kg) given intraperitoneally. Once anesthetized, the chest is opened and a direct cardiac puncture performed with a syringe and 10 cc of blood is aspirated. Immediately following removal of the blood, the animal is decapitated while deeply anesthetized and the brain removed.
One day after hypoxia, status epilepticus, hypoglycemia, ischemic stroke, and hemorrhagic stroke are produced in adult rats, RNA or protein is isolated from the blood cells and from the brains of the animals described in Example 1. The pattern of genes or proteins expressed in the blood cells following each of these types of injury—hypoxia, status epilepticus, hypoglycemia, ischemic stroke, and hemorrhagic stroke is captured on a commercially available microarray (Affymetrix chip). The pattern of gene or protein expression is defined using an expression method, which then forms a genomic or proteomic organ injury database, which is used in assessing injury.
Note that the genes induced in the blood are different from the genes induced in the brain. Therefore, different organs express different genes. In addition, the genes induced by hypoxia in the blood are different from the genes induced by hypoxia in the brain. That is, the same stimulus induces different genes in different organs. Lastly, even though similar genes are induced in the brain by ischemia (stroke) and kainic acid-induced seizures, there are many differences in the gene expression between the two. Therefore, the pattern of gene expression in the brains of ischemic animals is distinctive from the pattern of expression of the kainate animals, and this pattern can be used to diagnose the different conditions of stroke and status epilepticus, even though many of the same genes are induced in the two conditions.
In further support, the following Tables 5 and 6 list those genes induced in the brain following stroke, kainic induced seizures, and hypoxia as compared with untouched controls and sham-operated controls.

`C=C(C)[C@H]1CN[C@H](C(=O)O)[C@H]1CC(=O)O` [kainate, kainic acid] was tested, and the “Kainic Acid Seizure (fold change)” value (D10729_s_at Rat RNA for proteasome subunit RC) was 4.9 fold change, the “Kainic Acid Seizure (fold change)” value (M92433exon#1 Rattus norvegicus nerve growth factor-induced clone C (NGFI-C) gene) was “NC” and the “Kainic Acid Seizure (fold change)” value (d00575_at_ Rattus norvegicus RNA for pituitary glycoprotein hormone alpha-subunit precursor, complete cds) was “NC”. The “Kainic Acid Seizure (fold change)” value (rc_aa859740 EST) was “NC”, the “Kainic Acid Seizure (fold change)” value (rc_aa892578_ EST) was 2.7 fold change and the “Kainic Acid Seizure (fold change)” value (rc_ai178267 EST) was “NC”. The “Kainic Acid Seizure (fold change)” value (rc_ai639149 EST) was “NC”, the “Kainic Acid Seizure (fold change)” value (x62952 R. norvegicus RNA for vimentin) was 3.2 fold change and the “Kainic Acid Seizure (fold change)” value (x91810_at R. norvegicus RNA for Stat3 protein) was “NC”.
